No constants are given. Whether binding was seen depends on the method and setting. In cells and extracts the contact can be indirect. Some binding calls cover weakened binding; strength is not graded here.
Experiments:
[1] = target: in vitro translated 35S-methionine labeled mDia2 (mouse) (UniProt Q9Z207); test: GST pull-down of 35S-labeled in vitro translated protein
[2] = target: T1, in vitro translated 35S-methionine labeled mDia2 GBD (amino acids 101-216) (mouse) (UniProt Q9Z207); test: as above
T1 sequence (chain, 35S-methionine labeled): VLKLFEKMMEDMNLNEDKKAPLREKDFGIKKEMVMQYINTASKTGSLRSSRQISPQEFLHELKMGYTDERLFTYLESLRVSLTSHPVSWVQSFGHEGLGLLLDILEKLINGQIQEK

[3] = target: in vitro translated 35S-methionine labeled mDia2 (mouse) (UniProt Q9Z207); test: GST pull-down of 35S-labeled in vitro translated protein, autoradiography
[4] = target: T1, in vitro translated 35S-methionine labeled mDia2 GBD (amino acids 101-216) (mouse); test: as above

Measured: binding

GST-DAD (glutathione-S-transferase fused to mDia2 DAD, amino acids 1031-1171) (from UniProt Q9Z207 1031-1171)
binds: all assays above

Source: patent publication US20040072301A1
